Literature values in patent EP0407583A1, “DERIVATIVES OF DICHLOR[…] ACYLAMIDO[…] AND INSECTICIDAL, FU[…] HEMATOCIDAL PREPARATIONS BASED ON THEM” (priority 1989, dated 1990).
At least one read-out could not be matched to a standard name with certainty.

Test system: rats
Conditions: for rats; cited from earlier work

0,0-dimethyl-0-/2-(N,N'-diethylcarbamoyl)-1-methyl-2-chlorovinyl/ /phosphate [Known composition]
ZD50: 20 mg/kg
